From the supplement of paper PMC3682954
Where “and” joins values, the source holds several entries; their conditions need not be identical. Identical values can stand only once. Counter-ions that a name gives are not always drawn. ± gives the standard deviation of the averaged measurements. The list shows a part of the results. Many values rest on one well or one pass, so single values are uncertain.

System: RAW 264.7
Test: cell viability (MTT) relative to vehicle control; higher = more viable cells
Details: stimulus: HMGB1 5 ug/ml, 18 h
[1] = compound concentration: 1 ug/ml

Row | Structure (SMILES) | cell viability (compound concentration: 3 uM) | cell viability [1] [%]
1 | N#C/C(=C\c1ccc(O)c(O)c1)C(=O)NCCc1ccccc1 [Tyrphostin AG 698] | 102% | 
2 | O=c1[nH]c(=O)c2nc3ccccc3nc2[nH]1 [Alloxazine] | 97% | 
3 | O=c1cc(-c2ccccc2)[nH]c2nc(Cl)ccc12 [7-Chloro-4-hydroxy-2-phenyl-1,8-naphthyridine] | 98.4% | 
4 | CC(=O)N[C@@H](CS)C(=O)O | 108% | 
5 | CC(=O)N[C@@H](CS)C(=O)O [Acetylcysteine] | 105% | 
6 | CC(=O)N[C@@H](CS)C(=O)O [N-Acetyl-L-Cysteine] | 112% | 
7 | CN(C)CCn1nnnc1SCC1=C(C(=O)O)N2C(=O)[C@@H](NC(=O)Cc3csc(N)n3)[C@H]2SC1 [Cefotiam hydrochloride] | 99.6% | 
8 | N[C@@H](CCCC(=O)O)C(=O)O [L-2-aminoadipic acid] | 112% | 
9 | CC(C)CCCC(C)N (stereo not given) | 108% | 
10 | COc1ccc(-c2oc3cc(OC)ccc3c(=O)c2O)cc1 [4',7-Dimethoxy-3-hydroxyflavone] |  | 112
11 | O=c1cc(-c2ccccc2)oc2cc(O)c(O)c(O)c12 [Baicalein] |  | 98.9
12 | COc1cc(C2Oc3cc([C@H]4Oc5cc(O)cc(O)c5C(=O)[C@@H]4O)ccc3OC2CO)ccc1O (stereo not given in full) | 104% | 
13 | O=c1[nH]c2cc(C(F)(F)F)ccc2n1-c1cc(C(F)(F)F)ccc1O | 103% | 
14 | C[C@]12C[C@H](O)[C@H]3[C@@H](CCC4=CC(=O)CC[C@@]43C)[C@@H]1CC[C@@H]2C(=O)CO [Corticosterone] | 103 ± 9.5% | 
15 | C[C@]12C[C@H](O)[C@H]3[C@@H](CCC4=CC(=O)CC[C@@]43C)[C@@H]1CC[C@@H]2C(=O)CO | 106% | 
16 | COC(=O)C1=C(C)NC(C)=C(C(=O)OC2CCCN(Cc3ccccc3)C2)C1c1cccc([N+](=O)[O-])c1 (stereo not given) | 95.3% | 
17 | CCc1ccc2c(-c3cccc(Cl)c3)nc(=O)n(CC)c2n1 | 102% | 
18 | O=C(CCCCCCC(=O)Nc1ccccc1)NO [Vorinostat] | 38.5% | 
19 | CC(C)ON([C@@H](C(=O)NO)C(C)C)S(=O)(=O)c1ccc(-c2ccccc2)cc1 | 99.2% | 
20 | CC[C@H]1OC(=O)C[C@@H](O)[C@H](C)[C@@H](O[C@@H]2O[C@H](C)[C@@H](O[C@H]3C[C@@](C)(O)[C@@H](O)[C@H](C)O3)[C@H](N(C)C)[C@H]2O)[C@@H](CC=O)C[C@@H](C)C(=O)/C=C/C(C)=C/[C@@H]1CO[C@@H]1O[C@H](C)[C@@H](O)[C@@H](OC)[C@H]1OC [Tylosin] | 103 ± 5.2% | 
21 | CC[C@H]1OC(=O)C[C@@H](O)[C@H](C)[C@@H](O[C@@H]2O[C@H](C)[C@@H](O[C@H]3C[C@@](C)(O)[C@@H](O)[C@H](C)O3)[C@H](N(C)C)[C@H]2O)[C@@H](CC=O)C[C@@H](C)C(=O)/C=C/C(C)=C/[C@@H]1CO[C@@H]1O[C@H](C)[C@@H](O)[C@@H](OC)[C@H]1OC | 106% | 
22 | COC(=O)C1=C(C)NC(C)=C([N+](=O)[O-])C1c1ccccc1C(F)(F)F (racemic) | 93% | 
23 | Oc1ccc(Cn2cc[nH]c2=S)cc1 [1-(4-Hydroxybenzyl)imidazole-2-thiol] | 102% | 
24 | CCN(CC)CCOc1ccc2c(c1)C(=O)c1cc(OCCN(CC)CC)ccc1-2 | 105% | 
25 | c1ccc(-c2ccccn2)nc1 [2,2'-Bipyridyl] | 99% | 
26 | COc1ccccc1N1CCN(CCN(C(=O)c2ccc(F)cc2)c2ccccn2)CC1 [p-MPPF dihydrochloride] | 114% | 
27 | CC1(C)O[C@@H]2C[C@H]3[C@@H]4CCC5=CC(=O)C=C[C@]5(C)[C@H]4[C@@H](O)C[C@]3(C)[C@]2(C(=O)CO)O1 | 115% | 

Row | Structure (SMILES) | cell viability (compound concentration: 3 uM) | cell viability [1] [%]
28 | Nc1ccc2cn[nH]c2c1 | 95.4% | 
29 | C/C(=C(\CCOP(=O)(O)O)SC(=O)c1ccccc1)N(C=O)Cc1cnc(C)nc1N | 111% | 
30 | C/C(=C(\CCOP(=O)(O)O)SC(=O)c1ccccc1)N(C=O)Cc1cnc(C)nc1N [Benfotiamine] | 109% | 
31 | CN(Cc1cnc2nc(N)nc(N)c2n1)c1ccc(C(=O)NC(CCC(=O)O)C(=O)O)cc1 (racemic) | 92.8 ± 12% | 
32 | C=C[C@@]1(C)CC(=O)[C@]2(O)[C@@]3(C)[C@@H](O)CCC(C)(C)[C@@H]3[C@H](O)[C@H](OC(C)=O)[C@@]2(C)O1 [Forskolin] | 105% | 
33 | C=C[C@@]1(C)CC(=O)[C@]2(O)[C@@]3(C)[C@@H](O)CCC(C)(C)[C@@H]3[C@H](O)[C@H](OC(C)=O)[C@@]2(C)O1 | 98.7% | 
34 | CCN(CC)C(=S)SSC(=S)N(CC)CC | 96.7% | 
35 | CCN(CC)C(=S)SSC(=S)N(CC)CC [Disulfiram] | 92.5 ± 10% | 
36 | O=c1cc(-c2ccccc2)oc2cc(O)cc(O)c12 [Chrysin] |  | 98.7
37 | Nc1ncnc2c1ncn2[C@@H]1O[C@H](COP(=O)(O)OP(=O)(O)O)[C@@H](O)[C@H]1O [Adenosine 5'-diphosphate, monosodium salt dihydrate] |  | 96.1
38 | Nc1ncnc2c1ncn2[C@@H]1O[C@H](COP(=O)(O)OP(=O)(O)O)[C@@H](O)[C@H]1O [Adenosine-5'-diphosphate, disodium salt hydrate] |  | 92.5
39 | NC[C@H]1CC[C@H](C(=O)Oc2ccc(CCC(=O)O)cc2)CC1 | 97.7% | 
40 | Nc1c2c(nc3ccccc13)CCCC2 | 97.3% and 97.8% | 
41 | Nc1c2c(nc3ccccc13)CCCC2 [9-Amino-1,2,3,4-tetrahydroacridine hydrochloride] | 96.7% | 
42 | Nc1c2c(nc3ccccc13)CCCC2 [Tacrine] | 104% | 
43 | O=C1CN(/N=C/c2ccc([N+](=O)[O-])o2)C(=O)N1 | 102% | 
44 | O=C1CN(/N=C/c2ccc([N+](=O)[O-])o2)C(=O)N1 [Nitrofurantoin] | 94.3% | 
45 | CS(=O)(=O)c1ccc(-c2cc(Br)sc2-c2ccc(F)cc2)cc1 | 102% | 
46 | NC(N)=NC(=O)c1nc(Cl)c(N2CCCCCC2)nc1N [5-(N,N-hexamethylene)amiloride] | 97.7% | 
47 | CC1=C(CC(=O)O)c2cc(F)ccc2/C1=C\c1ccc(S(C)(=O)=O)cc1 [Sulindac sulfone] | 140% | 
48 | S=c1ccss1 | 135% | 
49 | Cc1ccccc1OCC(O)CO (stereo not given) | 114% | 
50 | Cc1ccccc1OCC(O)CO (stereo not given) [Mephenesin] | 95% | 
51 | CC(C)(C)C(=O)C(Oc1ccc(Cl)cc1)n1ccnc1 (stereo not given) [Climbazole] | 91.8% | 
52 | Cc1c(C(=O)O)c(O)cc2c1C(=O)c1c(O)c([C@@H]3O[C@H](CO)[C@@H](O)[C@H](O)[C@H]3O)c(O)c(O)c1C2=O [Carminic acid] |  | 95.9
53 | COc1c(-c2ccccc2)oc2c(ccc3occc32)c1=O [Karanjin] |  | 100
54 | Cc1nc2sccn2c(=O)c1CCN1CCC(=C(c2ccccc2)c2ccc(F)cc2)CC1 [Diacylglycerol kinase inhibitor I] | 105% | 

Row | Structure (SMILES) | cell viability (compound concentration: 3 uM) | cell viability [1] [%]
55 | CC(C)=CCC/C(C)=C/CC/C(C)=C/CO [Farnesol, mixture of isomers] |  | 102
56 | CC1(C)S[C@@H]2[C@H](NC(=O)C(C(=O)O)c3ccccc3)C(=O)N2[C@H]1C(=O)O (stereo not given in full) | 108% | 
57 | CCN(CC)CCOC(=O)C(Cc1cccc2ccccc12)CC1CCCO1 (stereo not given) [Nafronyl oxalate] | 96.4% | 
58 | CCN(CC)CCOC(=O)C(Cc1cccc2ccccc12)CC1CCCO1 (stereo not given) | 99.6% | 
59 | COc1ccc(C(=O)/C(Br)=C\C(=O)O)cc1 [Bromebric acid] | 106% | 
60 | C[C@H](N)[C@H](O)c1cccc(O)c1 [Metaraminol bitartrate] | 104% | 
61 | C[C@H](N)[C@H](O)c1cccc(O)c1 | 109% | 
62 | NC(=O)NC(CC(=O)O)C(=O)O (racemic) [Ureidosuccinic acid; Carbamoyl-dl-aspartic acid] |  | 100
63 | CCOC(=O)n1ccn(C)c1=S | 103% | 
64 | CCOC(=O)n1ccn(C)c1=S [Carbimazole] | 109% | 
65 | CC(C)[C@H]1c2ccc(F)cc2CC[C@@]1(CCN(C)CCCc1nc2ccccc2[nH]1)OC(=O)C1CC1 | 92.2% | 
66 | COc1cc(O)c2c(c1)C(=O)c1cc(C)cc(O)c1C2=O | 139% | 
67 | O=C1CN(/N=C/c2ccc(-c3ccc([N+](=O)[O-])cc3)o2)C(=O)N1 [Dantrolene sodium] | 98.9% | 
68 | O=C1CN(/N=C/c2ccc(-c3ccc([N+](=O)[O-])cc3)o2)C(=O)N1 | 103% | 
69 | O=C1CN(/N=C/c2ccc(-c3ccc([N+](=O)[O-])cc3)o2)C(=O)N1 [Dantrolene sodium salt] | 98.3% | 
70 | O=C(c1ccc2c(c1)OCCO2)N1CCCCC1 | 101% | 
71 | Cc1cc(NS(=O)(=O)c2ccc(N)cc2)no1 | 101% | 
72 | Cc1cc(NS(=O)(=O)c2ccc(N)cc2)no1 [Sulfamethoxazole] | 106% | 
73 | CN[C@@H]1[C@@H](O)[C@@H](O[C@@H]2[C@@H](O)[C@H](O[C@H]3OC(CN)=CC[C@H]3N)[C@@H](N)C[C@H]2N)OC[C@]1(C)O | 102% | 
74 | CN[C@@H]1[C@@H](O)[C@@H](O[C@@H]2[C@@H](O)[C@H](O[C@H]3OC(CN)=CC[C@H]3N)[C@@H](N)C[C@H]2N)OC[C@]1(C)O [Sisomicin sulfate] | 91.7% | 
75 | CC1(C)S[C@@H]2[C@H](NC(=O)[C@H](C(=O)O)c3ccsc3)C(=O)N2[C@H]1C(=O)O | 105% | 
76 | CC1(C)S[C@@H]2[C@H](NC(=O)[C@H](C(=O)O)c3ccsc3)C(=O)N2[C@H]1C(=O)O [Ticarcillin sodium] | 90.4% | 
77 | COC(=O)c1c(C)[nH]c(C)c1C(=O)c1ccccc1Cc1ccccc1 | 111% | 
78 | COc1cc(C(O)CO)ccc1OS(=O)(=O)O (stereo not given) [MHPG sulfate potassium] | 111% | 
79 | Cc1ccc2oc(-c3ccccc3)c(O)c(=O)c2c1 [6-Methylflavonol] |  | 98.8
80 | CN1[C@@H]2CC[C@H]1CC(OC(=O)c1c[nH]c3ccccc13)C2 (stereo not given in full) [3-Tropanyl-indole-3-carboxylate hydrochloride] | 86.4% | 
